Screening data, single-dose tests

Data taken from ChEMBL document CHEMBL3988442, “University of Dundee, Small-Polar-MMV Screening Library” (2021).

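Phenotypic screen: M. tuberculosis growth, cholesterol and DPPC medium, 4 days; the read-out is not stated. Compounds at 50 µM. Direction is inferred from retests: higher values go with more growth inhibition. Size under these conditions: about 69,000 compounds, about 370 of them at 50% or above in at least one test.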

Each number is a percent effect as filed. The controls that fix the scale are not given in the record; negative values are as filed. This is an unselected part of the compounds tested. Two or more numbers in one place are separate tests of the same structure; such repeats can differ widely.

{"compound": "COCCCn1ccc(NS(=O)(=O)c2cc(C)c(F)cc2F)n1", "percent effect": -1.865}
{"compound": "Cl.O=C(Cn1c(-c2ccco2)cc2cccnc21)N1CCCC1", "percent effect": "8.777 & -1.648"}
{"compound": "CCCn1ccnc1CN1C[C@@H](NC(C)=O)[C@H](c2ccc(C)cc2)C1", "percent effect": -4.062}
{"compound": "Cc1c(COC(C)C)cccc1NC(=O)N1CC[C@H](O)C1", "percent effect": 10.74}
{"compound": "CC(C)c1nnc2ccc(N3CCC(C(=O)Nc4nccs4)CC3)nn12", "percent effect": -4.375}
{"compound": "CC(C)N1CCC(C(=O)N[C@H](C(=O)O)c2cccc(F)c2F)CC1", "percent effect": 16.78}
{"compound": "OCCOc1ccc(NCc2cccnc2)cn1", "percent effect": -26.41}
{"compound": "CC(C)(C)CC(=O)NCC(=O)Nc1ccn(Cc2cccnc2)n1", "percent effect": -22.29}
{"compound": "COCCNc1ccc(CC2CCCN(Cc3c[nH]cn3)C2)nn1", "stereo": "stereo not given", "percent effect": -12.23}
{"compound": "CCN1CC(COC(C)(C)C)Oc2ccncc2S1(=O)=O", "stereo": "stereo not given", "percent effect": -18.29}
{"compound": "O=C(Cc1ccccc1F)N1CCN(C(=O)c2cccc(F)c2)CC1", "percent effect": -26.62}
{"compound": "CN(C)CCCNC(=O)c1ccccc1NC(=O)c1cc(Cl)ccc1Cl", "percent effect": -3}
{"compound": "O=C(C1CC1)N1CCC(Nc2nc(O)cc(-c3ccsc3)n2)CC1", "percent effect": "-4.845 & -5.684"}
{"compound": "O=C(O)C(F)(F)F.O=C(O)C(F)(F)F.[H][C@@]12CCN(Cc3cnn(C)c3)[C@]1([H])CC[C@H](C(=O)NC1CC1)O2", "percent effect": -1.502}
{"compound": "Cc1ccccc1CN1CCN(C(C)c2nc(C3CC3)no2)CC1", "stereo": "stereo not given", "percent effect": 14.8}
{"compound": "Cc1ccc(C(=O)NC2CCN(C(=O)Nc3ccccn3)CC2)s1", "percent effect": -13.99}
{"compound": "O=C(N1CCCC1)N1CCOCC2(C1)CN(c1ccccc1)C(=O)CO2", "stereo": "stereo not given", "percent effect": -14.42}
{"compound": "CCN1CC2(CCN(C(=O)C3CSC(C)(C)C(=O)N3)CC2)CC1=O", "stereo": "stereo not given", "percent effect": 8.726}
{"compound": "CN(Cc1nnc2n1CCC2)C(=O)CCc1ccc2c(c1)OCO2", "percent effect": -24.12}
{"compound": "Nc1nc(N)c2c(n1)OC1(CCN(Cc3nccs3)C1)C2", "stereo": "stereo not given", "percent effect": "-15.65 & -16.45"}
{"compound": "[H][C@@]12CCN(C3CCCC3)C[C@]1(C(=O)N1CCOCC1)CCO2", "percent effect": -16.24}
{"compound": "O=C(Nc1nc2c(s1)CCC2)NC1CCCC1", "percent effect": 23.49}
{"compound": "CCS(=O)(=O)N1CCc2c(cccc2NC(=O)NCCO)C1", "percent effect": "6.854 & -6.248"}
{"compound": "O=C(Nc1cnn(Cc2ccccc2)c1)N1CCN(CCO)CC1", "percent effect": 9.554}
{"compound": "Cl.O=C(N1CCOCC1)N1CCCC2(CCCNC2)C1", "stereo": "stereo not given", "percent effect": 12.82}
{"compound": "CN(C)C(=O)Cn1ccc2cc(NC(=O)N3CCSCC3)ccc21", "percent effect": -0.2232}
{"compound": "c1cncc(CC2CN(c3cccnc3)CCO2)c1", "stereo": "stereo not given", "percent effect": 11.81}
{"compound": "COc1cc(C2SCC(=O)Nc3n[nH]cc32)cc(OC)c1O", "stereo": "stereo not given", "percent effect": -9.445}
{"compound": "O=C(O)C1CCN(c2ccc(Sc3ccc(Br)cc3)nn2)CC1", "percent effect": 7.812}
{"compound": "Cc1nc(O)cc(CCNC(=O)c2ccc(CN3CCCCC3)cc2)n1", "percent effect": -6.099}
{"compound": "Cc1nc(C)n(C2CCCN(C(=O)c3ccc4nccn4c3)C2)n1", "stereo": "stereo not given", "percent effect": 10.1}
{"compound": "[H][C@]12CC[C@]([H])(CN(Cc3ncc[nH]3)C1)N(Cc1c(C)noc1C)C2=O", "percent effect": -8.615}
{"compound": "O=C1NCC2(CCCN(C(=O)c3csc(-c4cccs4)n3)C2)O1", "stereo": "stereo not given", "percent effect": 8.442}
{"compound": "COc1ncccc1CNC(=O)c1cccc(C)n1", "percent effect": -0.585}
{"compound": "c1cc2ccc(N3CCN(Cc4ccc5c(c4)OCO5)CC3)nc2[nH]1", "percent effect": 9.097}
{"compound": "Cn1cnc2c1C(COCC1CCOCC1)CN(C(=O)c1ccco1)C2.O=C(O)C(F)(F)F", "stereo": "stereo not given", "percent effect": -31.25}
{"compound": "CCc1sc(C(=O)Nc2cnn(CC(=O)NC3CC3)c2)cc1C", "percent effect": -13.29}
{"compound": "CCOCC1c2c(ncn2C(C)C)CCN1C(=O)C1CC1", "stereo": "stereo not given", "percent effect": -9.577}
{"compound": "CCN(CC)CCn1cc(NC(=O)Nc2ccccc2OC)cn1", "percent effect": -15.78}
{"compound": "CCc1nc(CN(C)C2CCN(Cc3ccc(Cl)s3)C2)no1", "stereo": "stereo not given", "percent effect": -15.06}
{"compound": "CN(C)c1ccc2c(c1)CN(C(=O)c1ccnnc1)C2c1cnco1", "stereo": "stereo not given", "percent effect": 1.809}
{"compound": "COc1cc(C)nc(N2CCN(C(=O)CCc3ccco3)CC2)n1", "percent effect": "0.02085 & -1.326"}
{"compound": "Cc1cnc(CN(C)C2CCN(Cc3nc4ccccc4s3)C2)o1", "stereo": "stereo not given", "percent effect": -14.85}
{"compound": "CC(C)OCCS(=O)(=O)N1CCN(Cc2ccco2)CC1", "percent effect": 24.36}

For reference, 4 entries once more:

compound	percent effect
COc1cc(C)nc(N2CCN(C(=O)CCc3ccco3)CC2)n1	0.02085% & -1.326%
COc1ncccc1CNC(=O)c1cccc(C)n1	-0.585%
Cl.O=C(N1CCOCC1)N1CCCC2(CCCNC2)C1 (stereo not given)	12.82%
[H][C@@]12CCN(C3CCCC3)C[C@]1(C(=O)N1CCOCC1)CCO2	-16.24%